These are yes or no findings as the source states them, for the method shown. For part of these data: Binding seen in cells or lysates may run through a third protein. Some entries that bind do so weakly or less than the wild type.
Assays:
[1] = target: Full-length human FLAG-UBR5 (human) (UniProt O95071); test: pull-down; as a1 but with 50 μM fulvestrant; both purified
ER-eGFP reporter = ER-eGFP reporter (UniProt P03372); test: co-IP; reporter cells treated with ligand (ATRA, dexamethasone, AR agonist, brilanestrant) for different times; Pierce IP Lysis Buffer with ligand; GFP-Trap Magnetic Agarose beads overnight at 4°C; western blot
eGFP-GR reporter = eGFP-GR reporter (UniProt P04150); test: as above

Protein sequences, listed by entry. Tags and fused reporters are not part of them. Lines headed by an entry give the natural chain unless they say otherwise; changes in a name come on top.
UniProt O95071: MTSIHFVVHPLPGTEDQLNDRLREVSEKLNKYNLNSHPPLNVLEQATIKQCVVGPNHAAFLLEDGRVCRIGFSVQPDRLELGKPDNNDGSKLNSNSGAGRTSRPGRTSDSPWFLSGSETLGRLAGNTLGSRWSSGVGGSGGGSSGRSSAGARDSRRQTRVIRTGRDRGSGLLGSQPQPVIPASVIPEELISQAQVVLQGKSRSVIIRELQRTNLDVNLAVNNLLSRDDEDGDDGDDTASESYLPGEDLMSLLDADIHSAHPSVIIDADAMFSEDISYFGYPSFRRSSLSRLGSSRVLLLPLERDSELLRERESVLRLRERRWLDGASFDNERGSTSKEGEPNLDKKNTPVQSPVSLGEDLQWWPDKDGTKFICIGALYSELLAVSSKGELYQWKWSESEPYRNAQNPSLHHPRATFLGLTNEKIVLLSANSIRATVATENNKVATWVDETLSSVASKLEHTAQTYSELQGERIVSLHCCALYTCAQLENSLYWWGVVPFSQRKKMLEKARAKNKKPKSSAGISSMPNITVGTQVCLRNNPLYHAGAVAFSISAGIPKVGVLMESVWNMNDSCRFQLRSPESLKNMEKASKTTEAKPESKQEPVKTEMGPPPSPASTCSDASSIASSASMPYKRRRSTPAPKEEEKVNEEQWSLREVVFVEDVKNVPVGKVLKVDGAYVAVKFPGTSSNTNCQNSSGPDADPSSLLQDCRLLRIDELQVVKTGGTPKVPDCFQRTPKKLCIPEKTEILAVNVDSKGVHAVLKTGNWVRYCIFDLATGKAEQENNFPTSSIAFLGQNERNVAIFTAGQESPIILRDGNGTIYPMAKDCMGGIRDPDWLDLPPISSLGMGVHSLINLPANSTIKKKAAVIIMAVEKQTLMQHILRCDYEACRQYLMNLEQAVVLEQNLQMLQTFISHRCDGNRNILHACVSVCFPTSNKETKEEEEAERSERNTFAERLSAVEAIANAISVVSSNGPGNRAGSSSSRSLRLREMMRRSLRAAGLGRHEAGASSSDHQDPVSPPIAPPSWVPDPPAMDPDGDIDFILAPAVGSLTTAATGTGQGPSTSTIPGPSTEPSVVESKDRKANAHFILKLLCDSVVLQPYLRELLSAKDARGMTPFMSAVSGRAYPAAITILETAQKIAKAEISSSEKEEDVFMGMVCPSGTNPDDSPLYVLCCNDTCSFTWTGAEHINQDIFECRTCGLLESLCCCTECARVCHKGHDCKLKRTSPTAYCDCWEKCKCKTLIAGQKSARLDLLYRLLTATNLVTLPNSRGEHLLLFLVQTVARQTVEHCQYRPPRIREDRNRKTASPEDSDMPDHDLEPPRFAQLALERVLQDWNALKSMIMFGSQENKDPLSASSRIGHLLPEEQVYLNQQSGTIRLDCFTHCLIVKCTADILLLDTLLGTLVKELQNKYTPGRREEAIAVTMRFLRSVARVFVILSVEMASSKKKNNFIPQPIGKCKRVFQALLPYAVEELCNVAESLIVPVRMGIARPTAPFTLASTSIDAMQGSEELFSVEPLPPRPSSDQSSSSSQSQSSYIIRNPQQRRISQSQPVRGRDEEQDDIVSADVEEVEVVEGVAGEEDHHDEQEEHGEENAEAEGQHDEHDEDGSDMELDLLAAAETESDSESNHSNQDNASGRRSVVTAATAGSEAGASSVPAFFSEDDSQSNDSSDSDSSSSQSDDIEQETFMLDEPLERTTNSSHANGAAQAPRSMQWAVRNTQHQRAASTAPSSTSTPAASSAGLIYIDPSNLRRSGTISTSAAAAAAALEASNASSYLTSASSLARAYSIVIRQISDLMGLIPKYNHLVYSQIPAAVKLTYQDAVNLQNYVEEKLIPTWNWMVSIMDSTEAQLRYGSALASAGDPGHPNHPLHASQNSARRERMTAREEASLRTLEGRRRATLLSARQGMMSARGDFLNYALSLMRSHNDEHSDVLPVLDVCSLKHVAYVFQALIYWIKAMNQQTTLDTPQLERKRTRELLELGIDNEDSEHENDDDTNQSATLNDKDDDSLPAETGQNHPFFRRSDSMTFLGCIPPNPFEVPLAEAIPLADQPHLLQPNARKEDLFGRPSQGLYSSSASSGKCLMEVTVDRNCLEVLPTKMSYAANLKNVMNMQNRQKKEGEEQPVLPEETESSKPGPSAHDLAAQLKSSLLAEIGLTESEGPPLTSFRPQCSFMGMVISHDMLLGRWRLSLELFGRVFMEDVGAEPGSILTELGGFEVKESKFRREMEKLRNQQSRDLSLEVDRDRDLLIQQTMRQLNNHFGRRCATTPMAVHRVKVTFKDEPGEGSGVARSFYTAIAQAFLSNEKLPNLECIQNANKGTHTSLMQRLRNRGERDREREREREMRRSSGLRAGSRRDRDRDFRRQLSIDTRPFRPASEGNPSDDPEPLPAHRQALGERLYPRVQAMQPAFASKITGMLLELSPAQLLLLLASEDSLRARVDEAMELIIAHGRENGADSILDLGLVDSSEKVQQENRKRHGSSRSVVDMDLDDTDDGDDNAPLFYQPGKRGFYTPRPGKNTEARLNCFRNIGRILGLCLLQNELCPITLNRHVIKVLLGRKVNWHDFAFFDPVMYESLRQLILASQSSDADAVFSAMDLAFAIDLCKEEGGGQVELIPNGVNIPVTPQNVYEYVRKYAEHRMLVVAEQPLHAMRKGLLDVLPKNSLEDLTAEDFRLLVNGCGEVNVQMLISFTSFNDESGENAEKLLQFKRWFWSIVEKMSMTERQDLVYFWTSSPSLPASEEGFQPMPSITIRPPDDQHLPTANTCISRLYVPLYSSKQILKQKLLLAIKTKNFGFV
UniProt P03372: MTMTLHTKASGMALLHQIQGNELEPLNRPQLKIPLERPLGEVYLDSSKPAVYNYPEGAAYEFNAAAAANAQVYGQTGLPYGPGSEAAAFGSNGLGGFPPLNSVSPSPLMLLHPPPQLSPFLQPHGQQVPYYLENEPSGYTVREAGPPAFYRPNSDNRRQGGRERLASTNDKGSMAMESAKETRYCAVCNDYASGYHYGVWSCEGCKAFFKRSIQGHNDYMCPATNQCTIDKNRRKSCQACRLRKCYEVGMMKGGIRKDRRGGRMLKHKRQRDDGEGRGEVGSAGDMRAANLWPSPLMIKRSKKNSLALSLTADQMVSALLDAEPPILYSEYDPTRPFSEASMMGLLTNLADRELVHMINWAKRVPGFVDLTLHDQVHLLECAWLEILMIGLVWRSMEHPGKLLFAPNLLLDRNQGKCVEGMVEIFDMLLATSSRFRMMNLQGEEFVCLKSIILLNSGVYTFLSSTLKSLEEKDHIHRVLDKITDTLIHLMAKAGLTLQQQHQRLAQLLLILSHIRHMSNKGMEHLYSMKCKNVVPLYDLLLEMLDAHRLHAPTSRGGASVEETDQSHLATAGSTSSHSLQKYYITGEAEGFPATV
UniProt P04150: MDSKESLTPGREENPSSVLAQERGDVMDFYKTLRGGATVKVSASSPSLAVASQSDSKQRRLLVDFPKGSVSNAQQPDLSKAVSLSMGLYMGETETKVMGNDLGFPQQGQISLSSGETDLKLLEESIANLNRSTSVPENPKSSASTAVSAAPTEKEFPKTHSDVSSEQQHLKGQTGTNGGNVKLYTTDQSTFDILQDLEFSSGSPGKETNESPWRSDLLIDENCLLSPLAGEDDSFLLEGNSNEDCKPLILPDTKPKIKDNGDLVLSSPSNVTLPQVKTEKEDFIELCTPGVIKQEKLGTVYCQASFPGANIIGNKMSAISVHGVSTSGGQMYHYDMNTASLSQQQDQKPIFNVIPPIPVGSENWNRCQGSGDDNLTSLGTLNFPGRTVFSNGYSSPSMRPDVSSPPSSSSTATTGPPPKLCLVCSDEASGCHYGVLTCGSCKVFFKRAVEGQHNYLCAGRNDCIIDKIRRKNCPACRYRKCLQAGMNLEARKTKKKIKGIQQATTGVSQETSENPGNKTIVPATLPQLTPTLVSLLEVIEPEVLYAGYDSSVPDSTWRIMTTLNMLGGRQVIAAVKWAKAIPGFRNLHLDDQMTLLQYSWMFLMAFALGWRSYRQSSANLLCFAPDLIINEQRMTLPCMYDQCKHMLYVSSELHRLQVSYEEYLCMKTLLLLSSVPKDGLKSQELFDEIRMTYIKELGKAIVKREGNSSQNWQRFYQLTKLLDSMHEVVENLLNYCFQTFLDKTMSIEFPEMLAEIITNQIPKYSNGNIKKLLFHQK

| Substance | binding [1] | binding (ER-eGFP reporter) | binding (eGFP-GR reporter) |
| --- | --- | --- | --- |
| His-tagged ER ligand-binding domain (aa301-552) (from UniProt P03372 301-552) (domain or fragment) | no binding (condition: with 50 μM fulvestrant) |  |  |
| UBR5 (endogenous, in reporter cell lysates) (from UniProt O95071 1-2799) (enzyme) |  | binds | binds |

— article PMC11134608, “UBR5 forms ligand-dependent complexes on chromatin to regulate nuclear hormone receptor stability” (Molecular cell, 2023)
